## Library screen at single concentrations

Sequences of proteins named here, by UniProt entry; tags and fusion partners are left off. Residues count along the entry.
UniProt A4I591, 1-473: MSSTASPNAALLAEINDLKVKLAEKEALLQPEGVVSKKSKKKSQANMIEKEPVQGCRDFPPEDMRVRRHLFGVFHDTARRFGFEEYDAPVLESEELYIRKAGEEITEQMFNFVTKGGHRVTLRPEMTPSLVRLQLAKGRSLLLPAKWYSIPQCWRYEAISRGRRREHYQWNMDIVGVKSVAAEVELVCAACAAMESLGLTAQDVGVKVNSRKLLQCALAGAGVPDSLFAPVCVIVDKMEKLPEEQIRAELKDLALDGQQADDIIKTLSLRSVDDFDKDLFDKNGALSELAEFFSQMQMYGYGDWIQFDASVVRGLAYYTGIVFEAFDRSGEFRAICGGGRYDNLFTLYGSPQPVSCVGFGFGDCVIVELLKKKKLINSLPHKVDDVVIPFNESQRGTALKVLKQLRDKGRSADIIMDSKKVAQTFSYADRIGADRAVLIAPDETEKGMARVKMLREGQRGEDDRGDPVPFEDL
UniProt P9WFT3, whole entry: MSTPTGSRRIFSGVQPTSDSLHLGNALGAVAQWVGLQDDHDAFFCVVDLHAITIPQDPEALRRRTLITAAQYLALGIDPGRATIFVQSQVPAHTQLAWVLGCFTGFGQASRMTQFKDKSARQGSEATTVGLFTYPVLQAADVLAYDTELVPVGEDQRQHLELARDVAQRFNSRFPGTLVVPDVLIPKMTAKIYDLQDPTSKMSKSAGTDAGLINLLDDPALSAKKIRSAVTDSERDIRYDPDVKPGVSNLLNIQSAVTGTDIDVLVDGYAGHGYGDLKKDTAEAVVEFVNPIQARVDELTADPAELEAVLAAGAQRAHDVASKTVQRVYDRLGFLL

A: 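Histidine-tRNA ligase, Leishmania infantum (UniProt A4I591). Enzyme assay of histidyl-tRNA synthetase; the read-out is not stated. Compounds at 30 µM. Direction is inferred from retests: higher values go with stronger inhibition. The assay is labelled LdHisRS but filed under L. infantum. Of about 69,000 compounds tested this way, about 410 (0.6%) reached 50% or more in at least one test.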
B: 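Whole-parasite assay of Trypanosoma brucei over 72 hours; the read-out is not stated. Compounds at 30 µM. Higher reads as stronger inhibition (inferred: compounds with an IC50 in retests scored well above the rest). Values scatter widely below zero; nearly all retest evidence comes from the higher of the two concentrations used. About 64,000 compounds were tested under these conditions; 1.5% (about 940) showed 50% or more at least once.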
C: 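Tryptophan-tRNA ligase, Mycobacterium tuberculosis (UniProt P9WFT3). Enzyme assay of tryptophanyl-tRNA synthetase; the read-out is not stated. Tested at 10 µM. Direction is not recorded; retested compounds ran higher, which suggests that high means inhibition. About 65,000 compounds were tested under these conditions; 0.098% (about 64) showed 50% or more at least once.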

Values are the deposited “Percent Effect”, in %. How 0% and 100% were set is not recorded. Most values in the screen are low, and negative values occur. Compounds were drawn at random from those tested, without regard to their results. A dash means the value is not listed here; it may have been measured.

compound,A,B,C
Cc1cccc(CN2CC[C@@H]3[C@@H]2CCN3C(=O)Cc2ccsc2)n1,3.96%,-,-
Cc1cc(C[C@@H]2COC[C@H]2NCc2ccc(C(F)(F)F)cc2)on1.O=C(O)CC(O)(CC(=O)O)C(=O)O,-,8.396%,-
O=C(N[C@@H]1CN(c2ncccn2)C[C@@H]2CCCO[C@@H]21)c1ccnnc1,22.86%,-,5.207%
O=C(O)C(F)(F)F.O=C(O)C(F)(F)F.[H][C@@]12CCCO[C@]1([H])[C@H](N(C)Cc1ccco1)CN2Cc1ccc(OC)cc1,-,48.25%,-
Cc1cc(C)n(CC2CCCN2C(=O)CCc2nccs2)n1 (stereo not shown),7.143%,6.641%,-7.47%
O=C(COCCOc1ccccc1)NC1CCN(c2ncccn2)CC1,21.35%,-45.2%,-1.699%
c1ccc(OCCNC2=NCCCN2)cc1,20%,-,2.574%
CN1CCCC2(CCN(Cc3cncn3C3CCCCC3)C2)C1=O (stereo not shown),19.17%,-,-5.355%
C/C(=C\c1ccccc1)CN1CCCC(c2nnc3n2CCNCC3)C1 (stereo not shown),2.857%,-,0.07047%
C[C@H]1CN(C(=O)c2ccc[nH]2)C[C@@]12CCN(c1ccsc1)C2=O,20%,-176.3%,-3.44%
CC(C)[C@H](CO)Nc1nccc(-c2c[nH]nc2-c2ccncc2)n1,2.857%,-2.752%,-
O=C(CCCc1cn[nH]c1)N1C[C@@H](CN2CCOCC2)[C@@H](CO)C1,0%,-51.7%,-3.493%
Cc1cnn(CC2CCCN2Cc2nccn2C)c1 (stereo not shown),-2.703%,-2.55%,-2.632%
Cc1nn(C)c(C)c1C1CCCN1C(=O)c1nccnc1N (stereo not shown),3.509%,-0.9137%,-0.04732%
CCOC(=O)CNC(=O)c1cccnc1Oc1ccc(Cl)cc1,4.878%,-17.54%,-2.214%
COc1ccc(CCN)cc1-c1ccc(S(C)(=O)=O)cc1,23.94%,-33.88%,1.802%
O=C(O)[C@]12CCCN(C3CCOC3)C[C@H]1CN(c1nncs1)C2 (stereo partly shown),8.108%,-,-
CN1[C@H]2CC[C@@H]1CN(C(=O)c1ccc(-c3ccccc3)[nH]1)CC2,25.17%,-,-19.26%
CCN(CC)S(=O)(=O)c1ccc(CNC(=O)N2CCC(C#N)CC2)cc1,11.61%,70.46%,2.679%
CCC(=O)N1CCC2(CC1)COc1ccccc1S(=O)(=O)N(C)C2,18.87%,-6.473%,-2.85%
CC(NCc1ccccc1CN1CCCC1=O)c1ccc(C#N)cc1 (stereo not shown),10.96%,6.726%,-5.444%
FC(F)(F)COCCN1CCc2cncnc2C1,9.677%,-10.81%,2.2%
[H][C@@]12C[C@@H](O)CN1C[C@@H](Cc1ccccc1)N(Cc1ccccc1Cl)C2,-,21.7%,-
CN(C)CC(=O)N1CC2(CCN(S(=O)(=O)c3ccccc3)C2)C1,5.769%,-12.66%,-7.122%
CCC(CC)N(Cc1cc(=O)n(C)c(=O)n1C)C1CC1,21.92%,-18.45%,4.871%
CCCc1noc(CCC(=O)N2CCCC2c2noc(C3CC3)n2)n1 (stereo not shown),-19.1%,-16.46%,-1.967%
O=C(NC1CCN(c2ccccc2Br)C1)c1c[nH]nn1 (stereo not shown),24.49%,-15.2%,-3.965%
O=C(CCCc1nnc(-c2ccccc2)o1)N1CCN(C2CC2)CC1,8.929%,2.053%,-3.504%
COCCO[C@H]1CCN(C(=O)c2ccno2)[C@H]1Cc1ccncc1.O=C(O)C(F)(F)F,-,-25.46%,-
c1ccc(COCC2CN(Cc3ccsc3)Cc3nccn3C2)nc1 (stereo not shown),6.422%,-33.15%,1.91%
CN(Cc1ccccn1)C(=O)CC1CCOc2ccccc21 (stereo not shown),5.479%,-7.435%,-0.09551%
CCOc1ccc(CC(CNC(=O)c2ccc(C)s2)C(N)=O)cc1 (stereo not shown),13.22%,0.3927%,1.221%
CC(C)Oc1ccccc1C(=O)NCCc1nncn1C,6.349%,-17.05%,3.186%
CC(=O)N1CCC(Nc2cccc(OC(F)F)c2C)CC1,5.983%,-41.16%,-0.1715%
CC(C)=CCn1ncc(N2CCOCC2)cc1=O,11.43%,-11.43%,-0.07764%
COc1ccc(C(C#N)NC(=O)Cc2ccc(F)c(F)c2)c(OC)c1 (stereo not shown),10.96%,-72.29%,4.421%
c1cnnc(N2CCCC(NCc3nc(C4CC4)no3)C2)c1 (stereo not shown),33.02%,-3.197%,-1.243%
Cc1nonc1C1CCCN1C(=O)c1cn2ccsc2n1 (stereo not shown),13.92%,-2.919%,-0.05974%
CC(C)NC(=O)[C@@H]1C[C@H](N)CN1C(=O)c1cc2ccccc2[nH]c1=O,22.12%,-7.031%,0.9479%
CCC(=O)N1CCC2(CC1)COCCN2Cc1ccc(F)cc1,6.422%,-,-1.451%
O=C(O)C(F)(F)F.[H][C@@]12CCN(Cc3ccccc3OC)C[C@]1([H])O[C@@H](C(=O)N1CCCC1)C2,-,-19.41%,-
CCN(CC)C(=O)[C@@H]1C[C@H](N)CN1c1nnc(-c2ccccc2)s1,0%,20.34%,-1.722%
Cc1cnn(CC(=O)N2CCC3(CCC(=O)N(CCCO)C3)CC2)c1,7.527%,9.29%,-5.533%
CN(C)Cc1cc(=O)n2c(n1)CN(C(=O)c1ccc[nH]1)CCC2,19.8%,-,-
CCO[C@H]1CCN(S(=O)(=O)c2cn(C)cn2)[C@H]1Cc1ccccc1.O=C(O)C(F)(F)F,-,-0.09579%,-
Cc1nc(CNC(=O)NCc2ccc(OCC3CC3)nc2)cs1,11.32%,46.82%,1.484%
O=C(NCCN1CCOCC1)c1ccn(COc2ccc(F)cc2)n1,12.07%,-11.44%,-0.7772%
CC(C)c1nc(S(=O)(=O)N2CCSc3ccccc32)c[nH]1,8.621%,-41.65%,-1.122%
CCCOCC(=O)N1CCCC(c2nnc(CN3CCCCC3)n2C)C1 (stereo not shown),33.33%,-18.75%,13.37%
COc1ccc([C@@H]2CN(c3cnccn3)C[C@H]2N(C)C)cc1,0.8333%,-11.2%,0.8256%
FC(F)(F)c1cc(C2CCNCC2)nc(-c2ccsc2)n1,9.929%,-,-1.639%
O=S(=O)(C1CC1)N1CC[C@H](OCC2CC2)[C@@H]1Cc1ccncc1,5.263%,-10.46%,-5.591%
CC(CN1CCOCC1)NC(=O)N(C)Cc1ccc(Cl)s1 (stereo not shown),22.86%,9.97%,-1.589%
COc1c(C2CCCN2c2ncnc3sccc23)c(C)nn1C (stereo not shown),3.665%,-18.99%,-1.83%
CCc1nc(C2CCCN2C(=O)C2=COCC2)no1 (stereo not shown),9.459%,-2.096%,-4.139%
O=C(O)C1(n2ccc(-c3ccco3)n2)CCN(Cc2ccsc2)CC1,18.09%,-19%,-0.53%
Cc1cccc(CNC2CCN(CCc3ccncc3)CC2)c1C,12.12%,13.3%,-2.22%
[H][C@@]12CN(S(C)(=O)=O)C[C@]1(C(=O)NC)CCC21CCN(S(C)(=O)=O)CC1,-,-45.42%,-
O=C1CSCN1CC(=O)N1CCCC1c1nc2ccccc2s1 (stereo not shown),24.73%,-31.71%,-1.145%
CN(C)CCNC(=O)CCC1CCN(C(=O)c2ccc(Cl)cc2O)CC1,10%,-39.91%,0.2138%
O=C(Nc1ccc(-c2nc3c([nH]2)CCNC3)cc1)N1CCCC1,20%,-2.737%,6.049%
CCS(=O)(=O)Nc1ccc2[nH]c(C3CCC3)nc2c1,18.6%,-22%,5.829%
Cl.Cn1ccnc1CNC(=O)c1cnc(C2CCNCC2)cn1,-,-5.219%,-
COc1cccc(C(C(=O)O)N2CCSCC2)c1F (stereo not shown),10.62%,-98.99%,-0.9524%
CC(=O)N1CCCN(C(=O)NCCNc2cnccn2)CC1,5.263%,0.08031%,-7.052%
O=S(=O)(c1ccccc1)N1C(CN2CCOCC2)[C@]2(O)CC[C@H]1CC2 (stereo partly shown),-4.082%,-,-
CCNC(=O)NCc1ccc(-n2ccc(C(F)(F)F)n2)cc1,1.333%,-2.813%,-5.451%
COc1cc2nc(NCc3scnc3C)nc(N)c2cc1OC,18.33%,86.68%,2.716%
CC(=O)N1CCN(C(=O)NCCCN(C)S(C)(=O)=O)CC1,0%,-43.54%,-0.2601%
O=C(O)C(F)(F)F.O=C(O)C(F)(F)F.[H][C@]12CCN(Cc3ccccn3)[C@@]1([H])CC[C@H](COCC1CCOCC1)O2,-,11.6%,-
Cc1nc2c(C(=O)N[C@H]3C[C@H]4CN(C)CCN4C3)cccc2[nH]1,-5.479%,-,0.4461%

Repeated from the top, 7 entries:

compound	A	B	C
Cc1cccc(CN2CC[C@@H]3[C@@H]2CCN3C(=O)Cc2ccsc2)n1	3.96%	-	-
Cc1cc(C[C@@H]2COC[C@H]2NCc2ccc(C(F)(F)F)cc2)on1.O=C(O)CC(O)(CC(=O)O)C(=O)O	-	8.396%	-
O=C(N[C@@H]1CN(c2ncccn2)C[C@@H]2CCCO[C@@H]21)c1ccnnc1	22.86%	-	5.207%
O=C(O)C(F)(F)F.O=C(O)C(F)(F)F.[H][C@@]12CCCO[C@]1([H])[C@H](N(C)Cc1ccco1)CN2Cc1ccc(OC)cc1	-	48.25%	-
Cc1cc(C)n(CC2CCCN2C(=O)CCc2nccs2)n1 (stereo not shown)	7.143%	6.641%	-7.47%
O=C(COCCOc1ccccc1)NC1CCN(c2ncccn2)CC1	21.35%	-45.2%	-1.699%
c1ccc(OCCNC2=NCCCN2)cc1	20%	-	2.574%

Source: ChEMBL document CHEMBL3988442, “University of Dundee, Small-Polar-MMV Screening Library” (2021).